Earlier results, collected in US20150174112A1, “COMPOSITIONS FOR TREATING FRAGILE X AND OTHER DISORDERS METHODS OF USE THEREOF, AND SCREENING FOR COMPOUNDS FOR FRAGILE X AND OTHER DISORDERS” (EMORY UNIVERSITY, priority 2005, published 2015).
At least one structure is not confirmed: it was looked up by name or label, or the drawing left a doubt.

Test system: Fmr1 knockout mice
Details: cited from earlier work

## CN1CCc2cc3c(cc2[C@H]1[C@@H]1OC(=O)c2c1ccc1c2OCO1)OCO3 [bicuculline]
  dendritic spine density: further reduced
